Results from paper doi:10.1101/2022.11.30.518474.
Substitutions are numbered along the chain they refer to. Names and notes keep the numbering of the source. Results are given in words; binding and its absence hold for the method and conditions named. Binding seen in cells or lysates may run through a third protein. Some entries that bind do so weakly or less than the wild type. Sequences can lack the tags named with a protein. Values belong to the binder of their own block, whether it stands above or below them.

Tests used:
Test in all cases: co-IP
[1] = target: Hexokinase 1 (Hxk1), V5- or GFP-tagged, in yeast extract (S. cerevisiae) (UniProt P04806)
[2] = target: Hexokinase 2 (Hxk2), wild type, V5- or GFP-tagged, in yeast extract (S. cerevisiae) (UniProt P04807)
[3] = target: Hxk2^S15D, V5- or GFP-tagged, in yeast extract (S. cerevisiae) (UniProt P04807)
[4] = target: Hxk2^K13A, V5- or GFP-tagged, in yeast extract (S. cerevisiae) (UniProt P04807)
[5] = target: Hxk2^D106A, V5- or GFP-tagged, in yeast extract (S. cerevisiae) (UniProt P04807)
[6] = target: Hxk2^Δ7-16, V5- or GFP-tagged, in yeast extract (S. cerevisiae) (UniProt P04807)
[7] = target: Glucokinase 1 (Glk1), V5- or GFP-tagged, in yeast extract (S. cerevisiae) (UniProt P17709)

B2: Hexokinase 2 (Hxk2), wild type, V5- or GFP-tagged, in yeast extract (enzyme, UniProt P04807 1-486)
chain: MVHLGPKKPQARKGSMADVPKELMQQIENFEKIFTVPTETLQAVTKHFISELEKGLSKKGGNIPMIPGWVMDFPTGKESGDFLAIDLGGTNLRVVLVKLGGDRTFDTTQSKYRLPDAMRTTQNPDELWEFIADSLKAFIDEQFPQGISEPIPLGFTFSFPASQNKINEGILQRWTKGFDIPNIENHDVVPMLQKQITKRNIPIEVVALINDTTGTLVASYYTDPETKMGVIFGTGVNGAYYDVCSDIEKLQGKLSDDIPPSAPMAINCEYGSFDNEHVVLPRTKYDITIDEESPRPGQQTFEKMSSGYYLGEILRLALMDMYKQGFIFKNQDLSKFDKPFVMDTSYPARIEEDPFENLEDTDDLFQNEFGINTTVQERKLIRRLSELIGARAARLSVCGIAAICQKRGYKTGHIAADGSVYNRYPGFKEKAANALKDIYGWTQTSLDDYPIKIVPAEDGSGAGAAVIAALAQKRIAEGKSVGIIGA
binding [2]: binds

B5: Hxk2^D106A, V5- or GFP-tagged, in yeast extract (enzyme, UniProt P04807 1-486)
chain: B2 chain with D106A
binding [5]: no binding

B6: Hxk2^Δ7-16, V5- or GFP-tagged, in yeast extract (enzyme, UniProt P04807)
chain: MVHLGPADVPKELMQQIENFEKIFTVPTETLQAVTKHFISELEKGLSKKGGNIPMIPGWVMDFPTGKESGDFLAIDLGGTNLRVVLVKLGGDRTFDTTQSKYRLPDAMRTTQNPDELWEFIADSLKAFIDEQFPQGISEPIPLGFTFSFPASQNKINEGILQRWTKGFDIPNIENHDVVPMLQKQITKRNIPIEVVALINDTTGTLVASYYTDPETKMGVIFGTGVNGAYYDVCSDIEKLQGKLSDDIPPSAPMAINCEYGSFDNEHVVLPRTKYDITIDEESPRPGQQTFEKMSSGYYLGEILRLALMDMYKQGFIFKNQDLSKFDKPFVMDTSYPARIEEDPFENLEDTDDLFQNEFGINTTVQERKLIRRLSELIGARAARLSVCGIAAICQKRGYKTGHIAADGSVYNRYPGFKEKAANALKDIYGWTQTSLDDYPIKIVPAEDGSGAGAAVIAALAQKRIAEGKSVGIIGA
binding [6]: no binding

Next, values leading:

binding [1]: binds
binding [2]: binds
B1: Hexokinase 1 (Hxk1), V5- or GFP-tagged, in yeast extract (enzyme, UniProt P04806 1-485)
chain: MVHLGPKKPQARKGSMADVPKELMDEIHQLEDMFTVDSETLRKVVKHFIDELNKGLTKKGGNIPMIPGWVMEFPTGKESGNYLAIDLGGTNLRVVLVKLSGNHTFDTTQSKYKLPHDMRTTKHQEELWSFIADSLKDFMVEQELLNTKDTLPLGFTFSYPASQNKINEGILQRWTKGFDIPNVEGHDVVPLLQNEISKRELPIEIVALINDTVGTLIASYYTDPETKMGVIFGTGVNGAFYDVVSDIEKLEGKLADDIPSNSPMAINCEYGSFDNEHLVLPRTKYDVAVDEQSPRPGQQAFEKMTSGYYLGELLRLVLLELNEKGLMLKDQDLSKLKQPYIMDTSYPARIEDDPFENLEDTDDIFQKDFGVKTTLPERKLIRRLCELIGTRAARLAVCGIAAICQKRGYKTGHIAADGSVYNKYPGFKEAAAKGLRDIYGWTGDASKDPITIVPAEDGSGAGAAVIAALSEKRIAEGKSLGIIGA

binding [3]: no binding
B3: Hxk2^S15D, V5- or GFP-tagged, in yeast extract (enzyme, UniProt P04807 1-486)
chain: B2 chain with S15D

binding [4]: no binding
B4: Hxk2^K13A, V5- or GFP-tagged, in yeast extract (enzyme, UniProt P04807 1-486)
chain: B2 chain with K13A

binding [7]: binds
B7: Glucokinase 1 (Glk1), V5- or GFP-tagged, in yeast extract (enzyme, UniProt P17709 1-500)
chain: MSFDDLHKATERAVIQAVDQICDDFEVTPEKLDELTAYFIEQMEKGLAPPKEGHTLASDKGLPMIPAFVTGSPNGTERGVLLAADLGGTNFRICSVNLHGDHTFSMEQMKSKIPDDLLDDENVTSDDLFGFLARRTLAFMKKYHPDELAKGKDAKPMKLGFTFSYPVDQTSLNSGTLIRWTKGFRIADTVGKDVVQLYQEQLSAQGMPMIKVVALTNDTVGTYLSHCYTSDNTDSMTSGEISEPVIGCIFGTGTNGCYMEEINKITKLPQELRDKLIKEGKTHMIINVEWGSFDNELKHLPTTKYDVVIDQKLSTNPGFHLFEKRVSGMFLGEVLRNILVDLHSQGLLLQQYRSKEQLPRHLTTPFQLSSEVLSHIEIDDSTGLRETELSLLQSLRLPTTPTERVQIQKLVRAISRRSAYLAAVPLAAILIKTNALNKRYHGEVEIGCDGSVVEYYPGFRSMLRHALALSPLGAEGERKVHLKIAKDGSGVGAALCALVA
